Measured values as given in patent US20210371518A1 (University of Texas, published 2021).
No constants are given. Whether binding was seen depends on the method and setting. Some binding calls cover weakened binding; strength is not graded here.

Chains of the proteins cited; added tags and fusions are not shown. Lines headed by an entry give the natural chain unless they say otherwise; changes in a name come on top. Residues count along the entry.
UniProt Q8NHJ6: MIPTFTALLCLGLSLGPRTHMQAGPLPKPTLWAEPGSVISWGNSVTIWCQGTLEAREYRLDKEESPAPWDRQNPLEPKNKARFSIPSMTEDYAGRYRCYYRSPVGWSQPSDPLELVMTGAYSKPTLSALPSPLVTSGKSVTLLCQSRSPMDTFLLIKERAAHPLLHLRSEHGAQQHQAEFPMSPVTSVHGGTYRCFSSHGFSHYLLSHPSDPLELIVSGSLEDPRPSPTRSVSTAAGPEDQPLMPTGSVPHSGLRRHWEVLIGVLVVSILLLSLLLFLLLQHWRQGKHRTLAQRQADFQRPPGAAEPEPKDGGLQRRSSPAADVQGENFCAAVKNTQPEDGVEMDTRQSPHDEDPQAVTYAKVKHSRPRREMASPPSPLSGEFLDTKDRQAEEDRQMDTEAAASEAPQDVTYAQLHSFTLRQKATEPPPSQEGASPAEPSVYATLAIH
human LILRB4 protein (flow cytometry): residues 22-448 of Q8NHJ6
human LILRB4 extracellular domain (ECD) recombinant protein: residues 22-259 of Q8NHJ6

Assays:
[1] = biological target: T1, human LILRB4 D1 recombinant protein (human, UniProt Q8NHJ6 24-119, limits assumed); experiment: ELISA, coated LILRB4 D1
T1 construct: domain: D1 domain; also called LILRB4 D1 domain (D1); Ig domain-1

[2] = biological target: T1, human LILRB4 D1 recombinant protein; experiment: ELISA, LILRB4 D1 recombinant protein coated, anti-rabbit IgG F(ab)2-HRP
Experimental: FIGS. 23A-23B. FIG. 23A is a schematic of the LILRB4 extracellular domain (ECD). […] FIG. 23B illustrates the determination of exemplary LILRB4 mAbs binding to Ig domain-1 (D1 domain) of human LILRB4. X axis indicates the antibody concentrations and Y-axis is binding signals in OD (450 nm). LILRB4 D1 recombinant protein was coated on high absorption 96-well plates. Serial diluted (3-fold) LILRB4 mAb was added to the coated/blocked plates and detected using goat anti-rabbit IgG F(ab)₂-conjugated HRP as secondary antibody.

[3] = biological target: human LILRB4 protein (flow cytometry) (human) (UniProt Q8NHJ6); experiment: flow cytometry on human LILRB4, MFI
[4] = biological target: human LILRB4 extracellular domain (ECD) recombinant protein (human) (UniProt Q8NHJ6); experiment: ELISA, coated LILRB4 ECD

Row | Binder | binding [1] | binding [2] | binding [3] | binding [4]
1 | B4-72-2 (antibody, V domains shown, Rabbit monoclonal antibody) VH: EQSVEESGGRLVTPGTPLTLTCTASGFSLSSYYMSWVRQAPGRGLEYIGVINTGGSAVYATWTKGRFTISRTSTTVDLKMTGLTTEDTATYFCARGWSRGDLWGQGTLVTISS VL: ELDMTQTPSPVSAAVGGTVTIKCQSSQNVYDDDTLSWYQQKPGQPPKLLIYDASKLASGVPDRFSGSGSGTQFTLTISGVQCDDAATYYCLGVFHDGINNAFGGGTEVEIK | binds | binds | – | –
2 | h193 antibody No. 19 (h193-H3 / h193-K1) (antibody, V domains shown) VH: EVQLVESGGGLVQPGGSLRLSCAASGFSLSSSYWISWVRQAPGKGLEWIGSIDSGSVGITYYATWAKGRFTISRDNSKNTLYLQMNSLRAEDTAVYYCARHGDNWALDLWGQGTLVTVSS VL: DIQMTQSPSTLSASVGDRVTITCQASQSINSWLAWYQQKPGKAPKLLIYKASTLASGVPSRFSGSGSGTEFTLTISSLQPDDFATYYCQHGYIRGDLDNVFGGGTKVEIK | – | – | binds | –
3 | h193 antibody No. 24 (h193-H4 / h193-K2) (antibody, V domains shown) VH: EVQLVESGGGLVQPGGSLRLSCAASGFSLSSSYWISWVRQAPGKGLEWVSSIDSGSVGITYYATWAKGRFTISRDNSKNTLYLQMNSLRAEDTAVYYCARHGDNWALDLWGQGTLVTVSS VL: DLVMTQSPSTLSASVGDRVTITCQASQSINSWLAWYQQKPGKPPKLLIYKASTLASGVSSRFSGSGSGTEFTLTISSLQPDDVATYYCQHGYIRGDLDNVFGGGTKVEIK | – | – | binds | –
4 | h193 antibody No. 20 (h193-H3 / h193-K2) (antibody, V domains shown) VH: EVQLVESGGGLVQPGGSLRLSCAASGFSLSSSYWISWVRQAPGKGLEWIGSIDSGSVGITYYATWAKGRFTISRDNSKNTLYLQMNSLRAEDTAVYYCARHGDNWALDLWGQGTLVTVSS VL: DLVMTQSPSTLSASVGDRVTITCQASQSINSWLAWYQQKPGKPPKLLIYKASTLASGVSSRFSGSGSGTEFTLTISSLQPDDVATYYCQHGYIRGDLDNVFGGGTKVEIK | – | – | binds | –
5 | h193 antibody No. 33 (h193-H6 / h193-K3) (antibody, V domains shown) VH: EVQLVESGGGLVQPGGSLRLSCAASGFSLSSSYWISWVRQAPGKGLEWIGSIDSGSVGITYYATSAKGRFTISRDNSKNTLYLQMNSLRAEDTAVYYCARHGDNWALDLWGQGTLVTVSS VL: DIQMTQSPSTLSASVGDRVTITCRASQSINSWLAWYQQKPGKAPKLLIYKASTLASGVPSRFSGSGSGTEFTLTISSLQPDDFATYYCQHGYIRGDLDNVFGGGTKVEIK | – | – | binds | –
6 | h193 antibody No. 36 (h193-H7 / h193-K2) (antibody, V domains shown) VH: EVQLVESGGGLVQPGGSLRLSCAASGFSLSSSYWISWVRQAPGKGLEWIGSIDSGSVGITYYATWVKGRFTISRDNSKNTLYLQMNSLRAEDTAVYYCARHGDNWALDLWGQGTLVTVSS VL: DLVMTQSPSTLSASVGDRVTITCQASQSINSWLAWYQQKPGKPPKLLIYKASTLASGVSSRFSGSGSGTEFTLTISSLQPDDVATYYCQHGYIRGDLDNVFGGGTKVEIK | – | – | binds | –
7 | h193 antibody No. 31 (h193-H6 / h193-K1) (antibody, V domains shown) VH: EVQLVESGGGLVQPGGSLRLSCAASGFSLSSSYWISWVRQAPGKGLEWIGSIDSGSVGITYYATSAKGRFTISRDNSKNTLYLQMNSLRAEDTAVYYCARHGDNWALDLWGQGTLVTVSS VL: DIQMTQSPSTLSASVGDRVTITCQASQSINSWLAWYQQKPGKAPKLLIYKASTLASGVPSRFSGSGSGTEFTLTISSLQPDDFATYYCQHGYIRGDLDNVFGGGTKVEIK | – | – | binds | –
8 | B4-15-1 (antibody, V domains shown, Rabbit monoclonal antibody against human LILRB4 ECD) VH: SGGLEESGGRLVTPGTPLTLTCTASGFTINSAHMSWVRQAPGKGLEWIGFSTTGGPSYYANWAKGRFTISRTSTTVDLEITSPTIEDTATYFCARDGPGNNIDMDLWGQGTLVTITS VL: ELDLTQTPASVSEPVGGTVTIKCQASQNRGGSIAWYQQKPGQPPKLLIYSASTLASGVPSRFSGSGYGTEFTLTISGVQCADAGTYYCQSTIYSISDIGAFGGGTEVVVK | binds | binds | – | binds
9 | B4-116-1 (antibody, V domains shown, Rabbit monoclonal antibody) VH: EQSVEESGGDLVKPGASLTLTCAASGFSFSSTYCMCWVRQAPGKGLEWIACIHGVSTNNRWYASWPKGRFTISKTSSTTVTLQMTSLTAADTATYFCARSDTDYEWGLSLWGPGTLVTISS VL: ELDLTQTPASVSEPVGGTVTIKCQASESIGSRLAWYQQKPGQRPKLLIYKASTLASGVPSRFSGSGSGTEFTLTVSDLECADVAAYYCQCAGQSSTWAFGGGTEVEIK | binds | binds | – | –
10 | B4-116-2 (antibody, V domains shown, Rabbit monoclonal antibody) VH: EQSVEESGGDLVKPGASLTLTCAASGFSFSSTYCMCWVRQAPGKGLEWIACIHGVSTNNRWYASWPKGRFTISKTSSTTVTLQMTSLTAADTATYFCARSDTDYEWGLSLWGPGTLVTISS VL: ELVMTQTPASVEAVVGGTVTIKCQASESIGSRLAWYQQKPGQRPKLLIYKASTLASGVPSRFSGSGSGTEFTLTVSDLECADVAAYYCQCAGQSSTWAFGGGTEVVVK | binds | binds | – | –
11 | B4-87 (antibody, V domains shown, Rabbit monoclonal antibody) VH: QSVKESGGDLVKPGASLTLTCTASGFSFISTYWICWVRQAPGKGLELIACIYTGGSGSTYYASWAKGRFTISKTSSTTVTLQLNSLTAADTATYFCARALYVDYVDYDYIDLWGPGTLVTVSS VL: ELDLTQTPASVEAAVGGTVTIKCQASENIGSRLAWYQQKPGQPPKLLIYAASNLASGVSSRFKGSRSGTQFTLTISDLECADAAIYYCQCSYYGSTYVFGFGGGTEVEIK | binds | binds | – | –

Next, values leading:

Row | binding [1] | binding [2] | binding [3] | binding [4] | Binder
12 | – | – | binds | – | h193 antibody No. 27 (h193-H5 / h193-K1) (antibody, V domains shown) VH: EVQLVESGGGLVQPGGSLRLSCAASGFSLSSSYWISWVRQAPGKGLEWIGVIDSGSVGITYYATWAKGRFTISRDNSKNTLYLQMNSLRAEDTAVYYCARHGDNWALDLWGQGTLVTVSS VL: DIQMTQSPSTLSASVGDRVTITCQASQSINSWLAWYQQKPGKAPKLLIYKASTLASGVPSRFSGSGSGTEFTLTISSLQPDDFATYYCQHGYIRGDLDNVFGGGTKVEIK
13 | – | – | binds | – | h193 antibody No. 23 (h193-H4 / h193-K1) (antibody, V domains shown) VH: EVQLVESGGGLVQPGGSLRLSCAASGFSLSSSYWISWVRQAPGKGLEWVSSIDSGSVGITYYATWAKGRFTISRDNSKNTLYLQMNSLRAEDTAVYYCARHGDNWALDLWGQGTLVTVSS VL: DIQMTQSPSTLSASVGDRVTITCQASQSINSWLAWYQQKPGKAPKLLIYKASTLASGVPSRFSGSGSGTEFTLTISSLQPDDFATYYCQHGYIRGDLDNVFGGGTKVEIK
14 | – | – | binds | – | h193 antibody No. 37 (h193-H7 / h193-K3) (antibody, V domains shown) VH: EVQLVESGGGLVQPGGSLRLSCAASGFSLSSSYWISWVRQAPGKGLEWIGSIDSGSVGITYYATWVKGRFTISRDNSKNTLYLQMNSLRAEDTAVYYCARHGDNWALDLWGQGTLVTVSS VL: DIQMTQSPSTLSASVGDRVTITCRASQSINSWLAWYQQKPGKAPKLLIYKASTLASGVPSRFSGSGSGTEFTLTISSLQPDDFATYYCQHGYIRGDLDNVFGGGTKVEIK
15 | – | – | binds | – | h193 antibody No. 32 (h193-H6 / h193-K2) (antibody, V domains shown) VH: EVQLVESGGGLVQPGGSLRLSCAASGFSLSSSYWISWVRQAPGKGLEWIGSIDSGSVGITYYATSAKGRFTISRDNSKNTLYLQMNSLRAEDTAVYYCARHGDNWALDLWGQGTLVTVSS VL: DLVMTQSPSTLSASVGDRVTITCQASQSINSWLAWYQQKPGKPPKLLIYKASTLASGVSSRFSGSGSGTEFTLTISSLQPDDVATYYCQHGYIRGDLDNVFGGGTKVEIK
16 | – | – | binds | – | h193 antibody No. 35 (h193-H7 / h193-K1) (antibody, V domains shown) VH: EVQLVESGGGLVQPGGSLRLSCAASGFSLSSSYWISWVRQAPGKGLEWIGSIDSGSVGITYYATWVKGRFTISRDNSKNTLYLQMNSLRAEDTAVYYCARHGDNWALDLWGQGTLVTVSS VL: DIQMTQSPSTLSASVGDRVTITCQASQSINSWLAWYQQKPGKAPKLLIYKASTLASGVPSRFSGSGSGTEFTLTISSLQPDDFATYYCQHGYIRGDLDNVFGGGTKVEIK
17 | binds | binds | – | – | B4-86 (antibody, V domains shown, Rabbit monoclonal antibody) VH: EQSVESGGDLVKPEGSLTLTCTVSGFSFSSSYWICWVRQAPGKGLEWIGCIGTGSGSTYYGSWAKGRFTISKTSSTTVTLQMTSLTAADTATYFCVRGAGYSSYRLWGPGTLVTISS VL: ELDMTQTPASVSEPVGGTVTIKCQASESVSNWLAWYQQKPGQRPKLLIYGASTLESGVPSRFSGSGSGTEFTLTISNLECADAATYYCQQGYDWDNIDNAFGGGTEVVVK
18 | binds | binds | – | – | B4-49 (antibody, V domains shown, Rabbit monoclonal antibody) VH: QSLEESGGDLVKPGASLTLTCTASGFDFSSSGWICWVRQAPGKGLELIACIYSGRSGSTYYASWAKGRVTISKTSSTTVTLQMTSLTAADTATYFCARALYVDYVDYDYIDLWGPGTLVTVSS VL: ELDLTQTPASVEAAVGGTVTIKCQASQSTGIRLAWYQQKPGQPPKLLMYATSNLASGVSSRFKGSGSGTEFTLTISDLECADAATYYCQYSYYGSSYVFDFGGGTEVEIK
